Experimental data reported in article PMC13379044.
These are yes or no findings as the source states them, for the method shown. Binding seen in cells or lysates may run through a third protein. Some results given as binding are weak or reduced against the parent protein; the word gives no strength.

Chains of the proteins cited; added tags and fusions are not shown.
UniProt Q13547: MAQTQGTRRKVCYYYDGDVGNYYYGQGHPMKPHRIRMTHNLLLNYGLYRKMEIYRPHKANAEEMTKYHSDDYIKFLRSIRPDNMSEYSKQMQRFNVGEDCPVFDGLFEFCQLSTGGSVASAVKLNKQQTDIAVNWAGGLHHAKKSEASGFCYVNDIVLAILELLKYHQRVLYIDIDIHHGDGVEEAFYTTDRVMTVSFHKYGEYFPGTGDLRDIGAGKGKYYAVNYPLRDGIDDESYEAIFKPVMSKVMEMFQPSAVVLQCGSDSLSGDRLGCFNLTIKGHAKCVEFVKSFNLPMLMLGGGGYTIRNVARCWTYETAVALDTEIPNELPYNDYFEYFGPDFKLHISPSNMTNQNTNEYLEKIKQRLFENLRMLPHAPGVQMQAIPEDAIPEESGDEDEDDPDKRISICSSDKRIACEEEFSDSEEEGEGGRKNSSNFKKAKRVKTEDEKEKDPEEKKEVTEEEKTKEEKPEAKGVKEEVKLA

Molecular target: Histone deacetylase 1 (human (endogenous in B lymphocytes of patients)) (UniProt Q13547)
Assay: co-IP; B lymphocyte lysate; anti-HDAC1 antibody as the bait (normal rabbit IgG as control), overnight at 4°C, agarose beads; western blot with anti-HDAC1 and anti-IRF1

B1: Interferon regulatory factor 1 (protein, UniProt P10914 1-325)
chain: MPITRMRMRPWLEMQINSNQIPGLIWINKEEMIFQIPWKHAAKHGWDINKDACLFRSWAIHTGRYKAGEKEPDPKTWKANFRCAMNSLPDIEEVKDQSRNKGSSAVRVYRMLPPLTKNQRKERKSKSSRDAKSKAKRKSCGDSSPDTFSDGLSSSTLPDDHSSYTVPGYMQDLEVEQALTPALSPCAVSSTLPDWHIPVEVVPDSTSDLYNFQVSPMPSTSEATTDEDEEGKLPEDIMKLLEQSEWQPTNVDGKGYLLNEPGVQPTSVYGDFSCKEEPEIDSPGGDIGLSLQRVFTDLKNMDATWLDSLLTPVRLPSIQAIPCAP
In the case of B1, the binding is reported as “binds”.
